Results are given in words; binding and its absence hold for the method and conditions named. Binding seen in cells or lysates may run through a third protein. A yes stands for co-enrichment or nearness to the bait. Other partners may have been found.
B1: HNRNPM (protein, UniProt P52272 1-730)
chain: MAAGVEAAAEVAATEIKMEEESGAPGVPSGNGAPGPKGEGERPAQNEKRKEKNIKRGGNRFEPYANPTKRYRAFITNIPFDVKWQSLKDLVKEKVGEVTYVELLMDAEGKSRGCAVVEFKMEESMKKAAEVLNKHSLSGRPLKVKEDPDGEHARRAMQKVMATTGGMGMGPGGPGMITIPPSILNNPNIPNEIIHALQAGRLGSTVFVANLDYKVGWKKLKEVFSMAGVVVRADILEDKDGKSRGIGTVTFEQSIEAVQAISMFNGQLLFDRPMHVKMDERALPKGDFFPPERPQQLPHGLGGIGMGLGPGGQPIDANHLNKGIGMGNIGPAGMGMEGIGFGINKMGGMEGPFGGGMENMGRFGSGMNMGRINEILSNALKRGEIIAKQGGGGGGGSVPGIERMGPGIDRLGGAGMERMGAGLGHGMDRVGSEIERMGLVMDRMGSVERMGSGIERMGPLGLDHMASSIERMGQTMERIGSGVERMGAGMGFGLERMAAPIDRVGQTIERMGSGVERMGPAIERMGLSMERMVPAGMGAGLERMGPVMDRMATGLERMGANNLERMGLERMGANSLERMGLERMGANSLERMGPAMGPALGAGIERMGLAMGGGGGASFDRAIEMERGNFGGSFAGSFGGAGGHAPGVARKACQIFVRNLPFDFTWKMLKDKFNECGHVLYADIKMENGKSKGCGVVKFESPEVAERACRMMNGMKLSGREIDVRIDRNA
B2: MED20 (protein, UniProt Q9H944 1-212)
chain: MGVTCVSQMPVAEGKSVQQTVELLTRKLEMLGAEKQGTFCVDCETYHTAASTLGSQGQTGKLMYVMHNSEYPLSCFALFENGPCLIADTNFDVLMVKLKGFFQSAKASKIETRGTRYQYCDFLVKVGTVTMGPSARGISVEVEYGPCVVASDCWSLLLEFLQSFLGSHTPGAPAVFGNRHDAVYGPADTMVQYMELFNKIRKQQQVPVAGIR
B3: FOXA2 (protein, UniProt Q9Y261 1-457)
chain: MLGAVKMEGHEPSDWSSYYAEPEGYSSVSNMNAGLGMNGMNTYMSMSAAAMGSGSGNMSAGSMNMSSYVGAGMSPSLAGMSPGAGAMAGMGGSAGAAGVAGMGPHLSPSLSPLGGQAAGAMGGLAPYANMNSMSPMYGQAGLSRARDPKTYRRSYTHAKPPYSYISLITMAIQQSPNKMLTLSEIYQWIMDLFPFYRQNQQRWQNSIRHSLSFNDCFLKVPRSPDKPGKGSFWTLHPDSGNMFENGCYLRRQKRFKCEKQLALKEAAGAAGSGKKAAAGAQASQAQLGEAAGPASETPAGTESPHSSASPCQEHKRGGLGELKGTPAAALSPPEPAPSPGQQQQAAAHLLGPPHHPGLPPEAHLKPEHHYAFNHPFSINNLMSSEQQHHHSHHHHQPHKMDLKAYEQVMHYPGYGSPMPGSLAMGPVTNKTGLDASPLAADTSYYQGVYSRPIMNSS
B4: E2F7 (protein, UniProt Q96AV8 1-911)
chain: MEVNCLTLKDLISPRQPRLDFAVEDGENAQKENIFVDRSRMAPKTPIKNEPIDLSKQKKFTPERNPITPVKFVDRQQAEPWTPTANLKMLISAASPDIRDREKKKGLFRPIENKDDAFTDSLQLDVVGDSAVDEFEKQRPSRKQKSLGLLCQKFLARYPSYPLSTEKTTISLDEVAVSLGVERRRIYDIVNVLESLHLVSRVAKNQYGWHGRHSLPKTLRNLQRLGEEQKYEEQMAYLQQKELDLIDYKFGERKKDGDPDSQEQQLLDFSEPDCPSSSANSRKDKSLRIMSQKFVMLFLVSKTKIVTLDVAAKILIEESQDAPDHSKFKTKVRRLYDIANVLTSLALIKKVHVTEERGRKPAFKWIGPVDFSSSDEELVDVSASVLPELKRETYGQIQVCAKQKLARHGSFNTVQASERIQRKVNSEPSSPYREEQGSGGYSLEIGSLAAVYRQKIEDNSQGKAFASKRVVPPSSSLDPVAPFPVLSVDPEYCVNPLAHPVFSVAQTDLQAFSMQNGLNGQVDVSLASAASAVESLKPALLAGQPLVYVPSASLFMLYGSLQEGPASGSGSERDDRSSEAPATVELSSAPSAQKRLCEERKPQEEDEPATKRQSREYEDGPLSLVMPKKPSDSTDLASPKTMGNRASIPLKDIHVNGQLPAAEEISGKATANSLVSSEWGNPSRNTDVEKPSKENESTKEPSLLQYLCVQSPAGLNGFNVLLSGSQTPPTVGPSSGQLPSFSVPCMVLPSPPLGPFPVLYSPAMPGPVSSTLGALPNTGPVNFSLPGLGSIAQLLVGPTAVVNPKSSTLPSADPQLQSQPSLNLSPVMSRSHSVVQQPESPVYVGHPVSVVKLHQSPVPVTPKSIQRTHRETFFKTPGSLGDPVLKRRERNQSRNTSSAQRRLEIPSGGAD
B5: QKI (protein, UniProt Q96PU8 1-341)
chain: MVGEMETKEKPKPTPDYLMQLMNDKKLMSSLPNFCGIFNHLERLLDEEISRVRKDMYNDTLNGSTEKRSAELPDAVGPIVQLQEKLYVPVKEYPDFNFVGRILGPRGLTAKQLEAETGCKIMVRGKGSMRDKKKEEQNRGKPNWEHLNEDLHVLITVEDAQNRAEIKLKRAVEEVKKLLVPAAEGEDSLKKMQLMELAILNGTYRDANIKSPALAFSLAATAQAAPRIITGPAPVLPPAALRTPTPAGPTIMPLIRQIQTAVMPNGTPHPTAAIVPPGPEAGLIYTPYEYPYTLAPATSILEYPIEPSGVLGAVATKVRRHDMRVHPYQRIVTADRAATGN
B6: TIA1 (protein, UniProt P31483 1-386)
chain: MEDEMPKTLYVGNLSRDVTEALILQLFSQIGPCKNCKMIMDTAGNDPYCFVEFHEHRHAAAALAAMNGRKIMGKEVKVNWATTPSSQKKDTSSSTVVSTQRSQDHFHVFVGDLSPEITTEDIKAAFAPFGRISDARVVKDMATGKSKGYGFVSFFNKWDAENAIQQMGGQWLGGRQIRTNWATRKPPAPKSTYESNTKQLSYDEVVNQSSPSNCTVYCGGVTSGLTEQLMRQTFSPFGQIMEIRVFPDKGYSFVRFNSHESAAHAIVSVNGTTIEGHVVKCYWGKETLDMINPVQQQNQIGYPQPYGQWGQWYGNAQQIGQYMPNGWQVPAYGMYGQAWNQQGFNQTQSSAPWMGPNYGVQPPQGQNGSMLPNQPSGYRVAGYETQ
B7: ESRP2 (protein, UniProt Q9H6T0 1-727)
chain: MTPPPPPPPPPGPDPAADPAADPCPWPGSLVVLFGATAGALGRDLGSDETDLILLVWQVVEPRSRQVGTLHKSLVRAEAAALSTQCREASGLSADSLARAEPLDKVLQQFSQLVNGDVALLGGGPYMLCTDGQQLLRQVLHPEASRKNLVLPDMFFSFYDLRREFHMQHPSTCPARDLTVATMAQGLGLETDATEDDFGVWEVKTMVAVILHLLKEPSSQLFSKPEVIKQKYETGPCSDSTVPCPYSSKADVVDSETVVRARGLPWQSSDQDVARFFKGLNVARGGVALCLNAQGRRNGEALIRFVDSEQRDLALQRHKHHMGVRYIEVYKATGEEFVKIAGGTSLEVARFLSREDQVILRLRGLPFSAGPTDVLGFLGPECPVTGGTEGLLFVRHPDGRPTGDAFALFACEELAQAALRRHKGMLGKRYIELFRSTAAEVQQVLNRYASGPLLPTLTAPLLPIPFPLAPGTGRDCVRLRGLPYTATIEDILSFLGEAAADIRPHGVHMVLNQQGRPSGDAFIQMTSAERALAAAQRCHKKVMKERYVEVVPCSTEEMSRVLMGGTLGRSGMSPPPCKLPCLSPPTYTTFQATPTLIPTETAALYPSSALLPAARVPAAPTPVAYYPGPATQLYLNYTAYYPSPPVSPTTVGYLTTPTAALASAPTSVLSQSGALVRMQGVPYTAGMKDLLSVFQAYQLPADDYTSLMPVGDPPRTVLQAPKEWVCL

Chains of the proteins cited; added tags and fusions are not shown.
UniProt P08651: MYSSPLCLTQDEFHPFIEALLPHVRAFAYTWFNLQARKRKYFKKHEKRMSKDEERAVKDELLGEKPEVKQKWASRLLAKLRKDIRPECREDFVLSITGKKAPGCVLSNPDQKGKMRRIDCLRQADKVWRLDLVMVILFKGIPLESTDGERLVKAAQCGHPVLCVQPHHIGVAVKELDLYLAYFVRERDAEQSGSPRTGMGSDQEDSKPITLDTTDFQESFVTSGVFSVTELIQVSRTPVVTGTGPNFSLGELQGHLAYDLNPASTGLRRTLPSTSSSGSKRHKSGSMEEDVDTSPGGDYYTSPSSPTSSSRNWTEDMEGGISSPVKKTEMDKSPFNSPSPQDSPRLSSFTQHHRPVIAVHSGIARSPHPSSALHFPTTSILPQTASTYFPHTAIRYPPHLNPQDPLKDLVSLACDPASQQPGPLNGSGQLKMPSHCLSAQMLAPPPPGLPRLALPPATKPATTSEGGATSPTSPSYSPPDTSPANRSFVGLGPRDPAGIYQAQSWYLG
UniProt Q9BQE9: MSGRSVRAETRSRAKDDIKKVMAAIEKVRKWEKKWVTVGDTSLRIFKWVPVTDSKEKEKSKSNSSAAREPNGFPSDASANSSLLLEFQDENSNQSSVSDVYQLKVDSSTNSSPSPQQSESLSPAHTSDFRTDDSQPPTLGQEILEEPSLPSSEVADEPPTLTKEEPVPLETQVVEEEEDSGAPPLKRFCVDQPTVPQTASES
UniProt Q8IWI9: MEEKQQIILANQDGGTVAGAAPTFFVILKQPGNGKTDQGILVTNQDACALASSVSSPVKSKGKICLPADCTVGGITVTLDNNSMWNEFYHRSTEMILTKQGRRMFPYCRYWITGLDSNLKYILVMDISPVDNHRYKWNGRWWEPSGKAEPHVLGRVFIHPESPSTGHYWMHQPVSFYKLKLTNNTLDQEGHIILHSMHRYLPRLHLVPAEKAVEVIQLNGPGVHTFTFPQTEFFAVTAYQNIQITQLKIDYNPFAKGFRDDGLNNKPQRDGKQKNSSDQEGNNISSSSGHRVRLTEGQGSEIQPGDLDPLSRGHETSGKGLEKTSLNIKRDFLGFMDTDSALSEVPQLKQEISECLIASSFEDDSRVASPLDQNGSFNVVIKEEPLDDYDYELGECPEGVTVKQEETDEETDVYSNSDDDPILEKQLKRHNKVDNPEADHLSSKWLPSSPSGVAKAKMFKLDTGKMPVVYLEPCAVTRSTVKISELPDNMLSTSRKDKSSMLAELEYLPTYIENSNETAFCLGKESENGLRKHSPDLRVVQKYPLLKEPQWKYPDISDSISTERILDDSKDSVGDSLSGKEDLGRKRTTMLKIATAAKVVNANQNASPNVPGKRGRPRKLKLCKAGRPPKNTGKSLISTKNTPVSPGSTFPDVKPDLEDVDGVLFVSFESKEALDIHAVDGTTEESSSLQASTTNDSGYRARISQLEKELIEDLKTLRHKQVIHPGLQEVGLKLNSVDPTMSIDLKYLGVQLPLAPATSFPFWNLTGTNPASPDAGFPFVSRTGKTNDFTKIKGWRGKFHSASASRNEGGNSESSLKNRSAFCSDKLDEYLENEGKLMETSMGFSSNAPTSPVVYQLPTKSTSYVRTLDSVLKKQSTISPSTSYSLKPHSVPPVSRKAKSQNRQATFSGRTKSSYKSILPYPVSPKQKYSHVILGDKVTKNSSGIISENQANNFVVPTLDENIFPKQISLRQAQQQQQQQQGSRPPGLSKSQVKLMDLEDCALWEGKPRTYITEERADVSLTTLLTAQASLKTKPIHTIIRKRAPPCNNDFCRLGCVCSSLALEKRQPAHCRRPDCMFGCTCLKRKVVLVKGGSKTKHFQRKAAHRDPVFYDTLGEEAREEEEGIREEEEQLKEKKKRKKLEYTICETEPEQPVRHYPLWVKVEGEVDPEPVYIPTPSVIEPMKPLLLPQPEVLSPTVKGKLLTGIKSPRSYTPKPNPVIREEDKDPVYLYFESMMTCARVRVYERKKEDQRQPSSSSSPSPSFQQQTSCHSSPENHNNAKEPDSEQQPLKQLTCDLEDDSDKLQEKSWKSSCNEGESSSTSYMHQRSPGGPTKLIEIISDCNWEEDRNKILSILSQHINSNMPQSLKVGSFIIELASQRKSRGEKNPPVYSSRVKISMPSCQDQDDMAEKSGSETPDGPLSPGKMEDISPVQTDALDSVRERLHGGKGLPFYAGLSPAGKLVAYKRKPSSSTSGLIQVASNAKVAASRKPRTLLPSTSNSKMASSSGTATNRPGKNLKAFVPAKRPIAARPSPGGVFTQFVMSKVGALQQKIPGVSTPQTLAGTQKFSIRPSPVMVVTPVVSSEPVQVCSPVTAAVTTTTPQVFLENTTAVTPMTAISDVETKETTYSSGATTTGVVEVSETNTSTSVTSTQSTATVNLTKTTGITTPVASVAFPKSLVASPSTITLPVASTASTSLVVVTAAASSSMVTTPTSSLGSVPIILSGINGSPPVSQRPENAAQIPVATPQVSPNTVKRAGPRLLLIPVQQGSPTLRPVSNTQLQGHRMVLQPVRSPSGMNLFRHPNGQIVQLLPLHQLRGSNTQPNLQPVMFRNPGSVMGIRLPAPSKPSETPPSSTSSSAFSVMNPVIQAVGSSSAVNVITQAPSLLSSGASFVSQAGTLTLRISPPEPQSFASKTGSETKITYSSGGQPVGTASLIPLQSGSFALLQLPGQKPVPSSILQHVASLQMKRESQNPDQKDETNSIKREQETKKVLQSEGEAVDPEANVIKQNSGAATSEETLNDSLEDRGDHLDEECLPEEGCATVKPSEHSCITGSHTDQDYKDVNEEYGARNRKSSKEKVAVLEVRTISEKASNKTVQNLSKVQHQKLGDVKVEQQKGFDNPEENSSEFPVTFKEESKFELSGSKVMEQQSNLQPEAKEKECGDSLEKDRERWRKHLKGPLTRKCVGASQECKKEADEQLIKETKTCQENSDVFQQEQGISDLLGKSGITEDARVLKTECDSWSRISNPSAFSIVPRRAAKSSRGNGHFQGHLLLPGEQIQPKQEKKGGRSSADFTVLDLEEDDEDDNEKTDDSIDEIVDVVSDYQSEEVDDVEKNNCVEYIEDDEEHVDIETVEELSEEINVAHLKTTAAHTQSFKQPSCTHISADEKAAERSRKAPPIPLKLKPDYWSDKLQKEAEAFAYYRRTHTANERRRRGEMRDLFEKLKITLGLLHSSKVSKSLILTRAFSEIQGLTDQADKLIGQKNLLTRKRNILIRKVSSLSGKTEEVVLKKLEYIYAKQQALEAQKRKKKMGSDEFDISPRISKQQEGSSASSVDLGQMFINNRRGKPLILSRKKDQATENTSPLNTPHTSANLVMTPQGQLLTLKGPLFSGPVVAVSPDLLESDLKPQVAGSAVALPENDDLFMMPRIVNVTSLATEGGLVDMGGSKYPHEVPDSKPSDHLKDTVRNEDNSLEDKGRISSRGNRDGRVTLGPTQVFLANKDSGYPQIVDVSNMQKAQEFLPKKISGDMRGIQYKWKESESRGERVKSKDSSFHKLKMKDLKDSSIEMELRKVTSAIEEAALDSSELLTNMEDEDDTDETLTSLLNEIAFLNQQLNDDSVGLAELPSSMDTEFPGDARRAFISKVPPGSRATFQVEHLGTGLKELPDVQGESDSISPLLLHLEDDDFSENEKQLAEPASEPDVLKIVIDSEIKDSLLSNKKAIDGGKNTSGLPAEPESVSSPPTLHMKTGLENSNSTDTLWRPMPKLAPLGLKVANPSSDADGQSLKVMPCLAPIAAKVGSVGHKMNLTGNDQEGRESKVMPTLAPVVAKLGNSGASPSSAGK
UniProt Q9ULL5: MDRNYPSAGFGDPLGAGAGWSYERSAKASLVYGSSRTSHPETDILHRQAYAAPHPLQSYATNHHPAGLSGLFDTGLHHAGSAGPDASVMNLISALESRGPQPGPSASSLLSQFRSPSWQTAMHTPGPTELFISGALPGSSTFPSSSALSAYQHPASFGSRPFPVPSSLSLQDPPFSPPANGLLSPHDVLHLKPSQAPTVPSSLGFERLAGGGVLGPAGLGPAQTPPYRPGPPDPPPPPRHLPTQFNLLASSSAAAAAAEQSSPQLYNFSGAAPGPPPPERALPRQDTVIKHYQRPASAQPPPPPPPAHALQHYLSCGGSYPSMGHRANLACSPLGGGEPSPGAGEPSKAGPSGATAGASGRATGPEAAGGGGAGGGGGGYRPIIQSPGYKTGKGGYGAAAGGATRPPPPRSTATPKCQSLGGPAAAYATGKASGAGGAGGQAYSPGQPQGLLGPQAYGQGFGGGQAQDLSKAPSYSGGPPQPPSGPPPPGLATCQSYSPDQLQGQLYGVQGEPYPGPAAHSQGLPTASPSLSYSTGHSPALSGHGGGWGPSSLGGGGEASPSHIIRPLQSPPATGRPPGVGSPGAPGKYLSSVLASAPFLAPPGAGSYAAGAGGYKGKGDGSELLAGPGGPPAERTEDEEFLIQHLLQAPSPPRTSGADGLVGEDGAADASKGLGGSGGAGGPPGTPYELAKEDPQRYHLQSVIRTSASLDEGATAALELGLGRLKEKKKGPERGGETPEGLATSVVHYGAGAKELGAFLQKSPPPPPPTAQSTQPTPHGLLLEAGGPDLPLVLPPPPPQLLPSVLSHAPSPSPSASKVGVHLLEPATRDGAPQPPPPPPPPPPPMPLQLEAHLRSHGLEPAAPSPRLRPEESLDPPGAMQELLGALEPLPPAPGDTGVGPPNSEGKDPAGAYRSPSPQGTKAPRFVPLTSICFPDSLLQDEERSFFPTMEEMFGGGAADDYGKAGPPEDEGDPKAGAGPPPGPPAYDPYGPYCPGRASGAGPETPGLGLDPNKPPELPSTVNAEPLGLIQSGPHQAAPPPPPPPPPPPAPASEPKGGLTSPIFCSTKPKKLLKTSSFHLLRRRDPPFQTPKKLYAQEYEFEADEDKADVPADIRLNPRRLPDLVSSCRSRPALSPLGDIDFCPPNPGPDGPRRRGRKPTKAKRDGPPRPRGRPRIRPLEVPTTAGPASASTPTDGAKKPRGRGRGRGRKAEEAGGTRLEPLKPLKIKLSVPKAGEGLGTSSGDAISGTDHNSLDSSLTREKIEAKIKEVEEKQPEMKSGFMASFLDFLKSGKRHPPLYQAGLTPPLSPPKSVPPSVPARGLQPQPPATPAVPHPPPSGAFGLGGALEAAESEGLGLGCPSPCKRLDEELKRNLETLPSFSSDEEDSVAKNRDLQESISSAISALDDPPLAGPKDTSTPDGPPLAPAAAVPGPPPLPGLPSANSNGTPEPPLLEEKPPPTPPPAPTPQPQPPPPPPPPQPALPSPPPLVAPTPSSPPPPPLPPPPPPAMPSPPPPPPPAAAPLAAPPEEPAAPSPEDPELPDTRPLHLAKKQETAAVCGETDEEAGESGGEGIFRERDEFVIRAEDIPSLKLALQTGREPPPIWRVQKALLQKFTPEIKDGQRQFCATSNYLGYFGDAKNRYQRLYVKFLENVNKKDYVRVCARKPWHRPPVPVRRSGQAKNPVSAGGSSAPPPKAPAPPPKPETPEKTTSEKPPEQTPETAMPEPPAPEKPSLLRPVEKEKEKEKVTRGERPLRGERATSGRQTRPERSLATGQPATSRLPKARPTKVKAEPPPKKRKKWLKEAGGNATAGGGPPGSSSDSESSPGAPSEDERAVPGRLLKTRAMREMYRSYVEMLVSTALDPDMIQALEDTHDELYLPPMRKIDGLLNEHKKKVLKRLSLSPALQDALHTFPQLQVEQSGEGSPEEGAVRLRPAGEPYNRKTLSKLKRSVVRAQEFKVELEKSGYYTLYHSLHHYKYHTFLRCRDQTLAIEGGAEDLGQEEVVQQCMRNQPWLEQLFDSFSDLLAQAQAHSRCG
UniProt Q04726: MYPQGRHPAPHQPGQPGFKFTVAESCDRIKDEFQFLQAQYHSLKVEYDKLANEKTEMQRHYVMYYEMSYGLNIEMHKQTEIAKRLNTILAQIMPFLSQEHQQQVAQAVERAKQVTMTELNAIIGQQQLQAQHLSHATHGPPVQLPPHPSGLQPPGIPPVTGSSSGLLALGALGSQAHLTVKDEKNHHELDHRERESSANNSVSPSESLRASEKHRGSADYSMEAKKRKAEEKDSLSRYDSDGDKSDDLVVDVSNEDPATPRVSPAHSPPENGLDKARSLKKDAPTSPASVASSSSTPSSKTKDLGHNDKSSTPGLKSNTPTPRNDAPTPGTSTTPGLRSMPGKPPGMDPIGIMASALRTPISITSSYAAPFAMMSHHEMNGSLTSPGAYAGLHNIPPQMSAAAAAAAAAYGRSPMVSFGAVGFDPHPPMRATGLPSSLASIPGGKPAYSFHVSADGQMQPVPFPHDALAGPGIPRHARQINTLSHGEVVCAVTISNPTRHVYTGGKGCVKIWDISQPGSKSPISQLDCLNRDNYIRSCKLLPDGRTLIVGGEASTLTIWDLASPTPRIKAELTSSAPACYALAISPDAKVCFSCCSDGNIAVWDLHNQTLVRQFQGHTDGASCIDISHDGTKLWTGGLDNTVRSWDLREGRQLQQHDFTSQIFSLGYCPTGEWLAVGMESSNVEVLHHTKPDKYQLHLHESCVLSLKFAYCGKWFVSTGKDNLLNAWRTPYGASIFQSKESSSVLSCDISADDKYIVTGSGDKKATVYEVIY

Columns and labels:
[1] = molecular target: MAC3-N-tagged NFIB (human) (UniProt O00712); experiment: proximity labelling; BioID with UltraID (MAC3-tag) on NFI baits in Flp-In T-REx 293 cells, 50 uM biotin for 16 h; lysis with 0.1% SDS and benzonase; Strep-Tactin beads; HCIs at SAINT BFDR <=0.01 against MAC3-N-tagged GFP
[2] = molecular target: MAC3-N-tagged NFIA (human) (UniProt Q12857); experiment: as above
[3] = molecular target: MAC3-N-tagged NFIC (human) (UniProt P08651); experiment: as above
[4] = molecular target: MAC3-N-tagged NFIA (human) (UniProt Q12857); experiment: affinity purification with mass spectrometry; MAC3-N-tagged NFI baits in Flp-In T-REx 293 cells induced with 2 ug/ml tetracycline for 24 h; lysis in 50 mM HEPES pH 8.0, 5 mM EDTA, 150 mM NaCl, 50 mM NaF, 0.5% NP40; capture on Strep-Tactin beads, elution with biotin; HCIs at SAINT BFDR <=0.05 against MAC3-N-tagged GFP
[5] = molecular target: MAC3-N-tagged NFIB4 (human); experiment: proximity labelling; BioID with UltraID (MAC3-tag) on NFI baits in Flp-In T-REx 293 cells, 50 uM biotin for 16 h; lysis with 0.1% SDS and benzonase; Strep-Tactin beads; HCIs at SAINT BFDR <=0.01 against MAC3-N-tagged GFP

binding [1] | binding [2] | binding [3] | binding [4] | binding [5] | Molecule
binds | – | – | – | – | BCL7B (from UniProt Q9BQE9 1-202)
binds | binds | binds | – | – | BCOR (from UniProt Q6W2J9 1-1755)
binds | – | – | – | – | CDK5 (from UniProt Q00535 1-292)
binds | binds | binds | – | – | CIC (from UniProt Q96RK0 1-2517)
binds | binds | binds | – | – | CREBBP (from UniProt Q92793 1-2442)
binds | binds | binds | – | – | JMJD1C (from UniProt Q15652 1-2540)
– | binds | – | – | – | KLF4 (from UniProt O43474 1-513)
– | binds | – | – | – | MAML2 (from UniProt Q8IZL2 1-1156)
binds | binds | binds | – | – | MGA (from UniProt Q8IWI9 1-3065)
binds | binds | binds | – | – | NCOR1 (from UniProt O75376 1-2440)
binds | binds | binds | – | – | PRR12 (from UniProt Q9ULL5 1-2036)
binds | binds | binds | binds | – | SMARCA4 (from UniProt P51532 1-1647)
binds | binds | binds | binds | – | SMARCC2 (from UniProt Q8TAQ2 1-1214)
– | – | – | binds | – | SMARCD1 (from UniProt Q96GM5 1-515)
binds | binds | binds | – | – | TLE3 (from UniProt Q04726 1-772)
– | binds | – | – | – | ZDHHC17 (from UniProt Q8IUH5 1-632)
binds | binds | binds | – | – | ZFHX4 (from UniProt Q86UP3 1-3567)
binds | binds | binds | – | – | B1
binds | – | – | – | – | B2
– | – | binds | – | – | B3
– | – | binds | – | – | B4
– | – | – | – | binds | B5
– | – | – | – | binds | B6
– | – | – | – | binds | B7

— PMC11775196
